Assay results taken from article PMC5339707, “ACCORD: an assessment tool to determine the orientation of homodimeric coiled-coils” (Scientific Reports, 2017).

Biological target: the molecule itself
Test: SEC-MALS; self-association of His6-SspB-CCD fusion proteins (ACCORD); Superdex 200 10/300 GL, 50 mM Tris pH 8.0, 0.5 mM TCEP, 200 mM NaCl; sample 3-5 mg/ml, 0.5 ml

B1: His6-SspB-GCN4 (249-281) fusion protein (other, E. coli | S. cerevisiae, UniProt P0AFZ3 1-165, looked up)
chain: MDLSQLTPRRPYLLRAFYEWLLDNQLTPHLVVDVTLPGVQVPMEYARDGQIVLNIAPRAVGNLELANDEVRFNARFGGIPRQVSVPLAAVLAIYARENGAGTMFEPEAAYDEDTSIMNDEEASADNETVMSVIDGDKPDHDDDTHPDDEPPQPPRGGRPALRVVKRMKQLEDKVEELLSKNYHLENEVARLKKLVGER
notes: Stringent starvation protein B (SspB), E. coli, full length, residues 1-165 (M1-K165), amplified from genomic DNA; General control protein GCN4, S. cerevisiae, coiled-coil domain, residues 249-281 (R249-R281); CCD ligated behind SspB in the His6-SspB vector (BamHI at the 5' end); vector holds TEV and thrombin cleavage sites; source: E. coli BL21(DE3), purified (HisTrap, Superdex 200); not shown: …
- stoichiometry N: 2
